# From PMC10163259, “KK-LC-1 as a therapeutic target to eliminate ALDH^+ stem cells in triple negative breast cancer” (Nature Communications, 2023)
# The chains behind the UniProt entries cited, without tags or fusion partners. Residues count along the entry.
# UniProt Q14517, residues 22-4588: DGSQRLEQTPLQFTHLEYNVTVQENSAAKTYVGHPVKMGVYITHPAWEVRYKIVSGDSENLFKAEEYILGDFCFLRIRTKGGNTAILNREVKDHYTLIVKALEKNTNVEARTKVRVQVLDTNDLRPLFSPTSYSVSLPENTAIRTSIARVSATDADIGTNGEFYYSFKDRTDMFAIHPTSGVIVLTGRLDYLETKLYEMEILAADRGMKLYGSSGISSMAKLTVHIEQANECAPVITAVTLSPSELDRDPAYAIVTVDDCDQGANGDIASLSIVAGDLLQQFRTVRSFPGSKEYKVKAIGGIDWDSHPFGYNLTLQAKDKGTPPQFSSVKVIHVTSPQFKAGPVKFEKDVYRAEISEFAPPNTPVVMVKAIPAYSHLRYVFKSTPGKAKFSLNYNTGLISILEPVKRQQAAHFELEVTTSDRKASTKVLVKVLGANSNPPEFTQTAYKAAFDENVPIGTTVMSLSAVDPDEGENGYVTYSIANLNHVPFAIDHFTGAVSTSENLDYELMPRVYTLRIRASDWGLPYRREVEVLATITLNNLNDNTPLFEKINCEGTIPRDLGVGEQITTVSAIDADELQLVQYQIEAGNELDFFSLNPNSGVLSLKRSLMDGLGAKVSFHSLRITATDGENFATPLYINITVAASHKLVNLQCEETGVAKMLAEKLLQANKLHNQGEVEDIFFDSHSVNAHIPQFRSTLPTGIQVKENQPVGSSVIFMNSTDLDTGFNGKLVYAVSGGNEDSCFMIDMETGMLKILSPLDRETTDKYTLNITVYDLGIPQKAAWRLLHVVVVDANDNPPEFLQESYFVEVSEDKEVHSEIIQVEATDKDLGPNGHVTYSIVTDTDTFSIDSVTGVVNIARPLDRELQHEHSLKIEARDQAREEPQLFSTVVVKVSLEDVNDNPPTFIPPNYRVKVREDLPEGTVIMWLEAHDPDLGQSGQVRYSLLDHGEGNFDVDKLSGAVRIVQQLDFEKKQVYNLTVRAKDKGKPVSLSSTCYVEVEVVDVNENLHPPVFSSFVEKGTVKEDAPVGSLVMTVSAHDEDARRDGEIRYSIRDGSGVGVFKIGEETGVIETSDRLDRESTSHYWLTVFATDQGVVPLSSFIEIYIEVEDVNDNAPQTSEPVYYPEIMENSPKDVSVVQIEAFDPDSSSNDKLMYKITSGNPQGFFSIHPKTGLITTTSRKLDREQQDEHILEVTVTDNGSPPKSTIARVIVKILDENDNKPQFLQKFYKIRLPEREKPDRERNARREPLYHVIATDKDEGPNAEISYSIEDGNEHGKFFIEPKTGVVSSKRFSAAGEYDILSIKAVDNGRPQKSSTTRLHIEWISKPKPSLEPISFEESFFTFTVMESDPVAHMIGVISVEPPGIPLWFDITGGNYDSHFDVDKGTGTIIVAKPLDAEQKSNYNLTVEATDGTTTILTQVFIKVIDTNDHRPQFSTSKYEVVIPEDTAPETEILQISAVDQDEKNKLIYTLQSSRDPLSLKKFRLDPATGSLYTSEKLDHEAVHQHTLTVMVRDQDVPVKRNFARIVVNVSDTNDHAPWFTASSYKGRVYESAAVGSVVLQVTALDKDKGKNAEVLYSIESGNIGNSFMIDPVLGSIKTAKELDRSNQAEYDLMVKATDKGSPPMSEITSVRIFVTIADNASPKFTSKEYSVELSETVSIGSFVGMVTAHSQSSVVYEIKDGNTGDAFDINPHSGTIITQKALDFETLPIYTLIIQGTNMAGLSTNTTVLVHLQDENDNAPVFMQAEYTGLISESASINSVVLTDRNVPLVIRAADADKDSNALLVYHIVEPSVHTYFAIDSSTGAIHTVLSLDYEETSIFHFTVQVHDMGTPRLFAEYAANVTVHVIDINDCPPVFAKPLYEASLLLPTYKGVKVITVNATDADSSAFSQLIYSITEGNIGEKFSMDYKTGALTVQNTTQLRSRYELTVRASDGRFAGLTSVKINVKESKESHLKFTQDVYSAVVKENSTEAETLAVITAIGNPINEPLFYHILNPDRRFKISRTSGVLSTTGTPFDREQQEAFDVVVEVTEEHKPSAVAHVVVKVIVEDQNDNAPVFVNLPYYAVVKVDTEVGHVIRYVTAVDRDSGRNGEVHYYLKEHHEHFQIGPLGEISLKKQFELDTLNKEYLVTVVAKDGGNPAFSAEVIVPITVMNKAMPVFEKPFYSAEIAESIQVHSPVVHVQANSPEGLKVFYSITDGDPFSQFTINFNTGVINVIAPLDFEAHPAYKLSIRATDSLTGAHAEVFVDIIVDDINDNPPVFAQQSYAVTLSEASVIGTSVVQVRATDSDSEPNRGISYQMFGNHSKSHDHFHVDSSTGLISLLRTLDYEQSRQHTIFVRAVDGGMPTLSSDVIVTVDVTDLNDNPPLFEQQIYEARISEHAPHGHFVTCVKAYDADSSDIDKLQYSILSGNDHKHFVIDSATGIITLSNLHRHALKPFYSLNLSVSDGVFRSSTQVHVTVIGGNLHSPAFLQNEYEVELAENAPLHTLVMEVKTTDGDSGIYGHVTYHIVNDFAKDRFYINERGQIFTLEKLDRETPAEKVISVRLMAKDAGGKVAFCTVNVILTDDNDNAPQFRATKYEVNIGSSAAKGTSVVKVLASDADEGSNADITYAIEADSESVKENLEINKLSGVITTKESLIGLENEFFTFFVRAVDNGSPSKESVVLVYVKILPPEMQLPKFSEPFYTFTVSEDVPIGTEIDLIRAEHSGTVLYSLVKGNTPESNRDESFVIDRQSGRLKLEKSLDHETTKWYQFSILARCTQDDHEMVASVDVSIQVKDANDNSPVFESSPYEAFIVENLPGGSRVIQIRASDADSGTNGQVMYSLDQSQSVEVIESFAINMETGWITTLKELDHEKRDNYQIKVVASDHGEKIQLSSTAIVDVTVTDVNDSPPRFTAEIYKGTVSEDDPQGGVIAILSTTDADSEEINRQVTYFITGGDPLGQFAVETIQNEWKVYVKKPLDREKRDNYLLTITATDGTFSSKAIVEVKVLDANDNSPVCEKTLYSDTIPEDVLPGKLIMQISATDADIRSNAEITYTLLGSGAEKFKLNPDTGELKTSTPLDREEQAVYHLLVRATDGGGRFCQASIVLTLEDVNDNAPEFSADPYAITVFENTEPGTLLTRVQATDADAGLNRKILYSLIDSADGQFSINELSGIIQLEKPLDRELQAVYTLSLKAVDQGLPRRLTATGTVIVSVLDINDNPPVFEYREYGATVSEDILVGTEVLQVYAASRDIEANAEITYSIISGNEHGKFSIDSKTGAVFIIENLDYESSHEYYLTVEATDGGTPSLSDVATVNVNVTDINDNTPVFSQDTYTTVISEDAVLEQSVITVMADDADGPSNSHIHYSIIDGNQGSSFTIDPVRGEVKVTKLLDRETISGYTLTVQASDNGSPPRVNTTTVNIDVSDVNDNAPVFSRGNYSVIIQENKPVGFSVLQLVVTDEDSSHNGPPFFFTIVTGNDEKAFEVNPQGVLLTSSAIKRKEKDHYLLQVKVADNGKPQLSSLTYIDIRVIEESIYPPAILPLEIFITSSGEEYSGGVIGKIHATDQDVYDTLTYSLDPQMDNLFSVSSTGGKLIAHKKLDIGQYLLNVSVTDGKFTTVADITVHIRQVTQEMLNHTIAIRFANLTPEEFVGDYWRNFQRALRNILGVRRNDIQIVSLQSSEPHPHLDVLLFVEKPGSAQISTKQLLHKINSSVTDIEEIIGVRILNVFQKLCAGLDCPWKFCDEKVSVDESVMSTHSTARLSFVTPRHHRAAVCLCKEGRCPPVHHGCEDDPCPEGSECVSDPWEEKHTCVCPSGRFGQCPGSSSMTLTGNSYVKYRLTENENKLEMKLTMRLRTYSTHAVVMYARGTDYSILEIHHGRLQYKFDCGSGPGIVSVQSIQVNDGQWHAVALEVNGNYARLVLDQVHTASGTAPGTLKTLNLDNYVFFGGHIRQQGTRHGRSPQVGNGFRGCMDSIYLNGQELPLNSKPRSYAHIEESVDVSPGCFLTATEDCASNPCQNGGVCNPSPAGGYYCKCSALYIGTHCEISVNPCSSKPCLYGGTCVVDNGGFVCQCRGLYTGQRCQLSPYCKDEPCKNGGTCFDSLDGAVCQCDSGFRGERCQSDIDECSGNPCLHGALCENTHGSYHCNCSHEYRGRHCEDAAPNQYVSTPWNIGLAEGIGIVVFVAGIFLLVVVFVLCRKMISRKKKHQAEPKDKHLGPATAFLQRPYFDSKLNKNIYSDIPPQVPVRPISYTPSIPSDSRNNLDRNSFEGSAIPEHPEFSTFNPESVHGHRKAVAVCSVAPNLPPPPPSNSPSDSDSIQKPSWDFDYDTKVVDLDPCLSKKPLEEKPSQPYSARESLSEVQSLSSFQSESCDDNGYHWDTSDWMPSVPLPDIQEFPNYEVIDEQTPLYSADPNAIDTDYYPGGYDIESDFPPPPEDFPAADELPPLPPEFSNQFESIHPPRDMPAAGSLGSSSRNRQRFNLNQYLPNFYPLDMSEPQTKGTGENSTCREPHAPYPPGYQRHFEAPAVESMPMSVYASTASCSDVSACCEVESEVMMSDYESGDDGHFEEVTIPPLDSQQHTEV
# Results are given in words; binding and its absence hold for the method and conditions named. In cells and extracts the contact can be indirect. Some results given as binding are weak or reduced against the parent protein; the word gives no strength.
# Target: T1, Kita-Kyushu lung cancer antigen-1 (KK-LC-1) (human (endogenous in MDA-MB-231 and MDA-MB-468)) (UniProt Q5H943)
# T1 sequence: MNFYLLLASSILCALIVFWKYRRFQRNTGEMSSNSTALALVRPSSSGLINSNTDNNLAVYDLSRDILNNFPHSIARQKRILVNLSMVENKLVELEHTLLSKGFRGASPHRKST
# Experiment: co-IP; endogenous proteins; whole-cell lysates of MDA-MB-231 and MDA-MB-468 cells in RIPA buffer, primary antibody overnight at 4 °C, protein A/G sepharose beads 2 h at 4 °C, 3 washes with RIPA, immunoblot; also after treatment of the cells with 5 µM Z8 or DMSO (Z8 dramatically decreased the co-immunoprecipitation)
substance,measurement,value
FAT1 (from UniProt Q14517 22-4588),binding,binds
